Results taken from patent US20080038276A1, “INHIBITORS OF PLASMA KALLIKREIN” (Activesite Pharmaceuticals, Inc., priority 2006, published 2008).
Some of these results come from one statement about several compounds together.

System: contact activated coagulation in human plasma
Experiment: Contact activated coagulation of human plasma (50% Actin FS), time to coagulation
Conditions: normal plasma, 1.1, 3.3 or 10 μM; range covers both compounds and all concentrations

Row | Structure (SMILES) | prolonged time to coagulation
1 | Cc1cc(C(=O)NCc2ccc(C(=N)N)cc2)c(C)n1Cc1ccncc1 [ASP-465, 2,5-Dimethyl-1-pyridin-4-ylmethyl-1H-pyrrole-3-carboxylic acid 4-carbamimidoyl-benzylamide] | 16-134%
2 | N=C(N)c1ccc(CNC(=O)c2cnn(Cc3ccccc3)c2)cc1 [ASP-440, 1-Benzyl-1H-pyrazole-4-carboxylic acid 4-carbamimidoyl-benzylamide] | 16-134%
